Laboratory results as given in paper PMC10591012.
These are yes or no findings as the source states them, for the method shown. Some results given as binding are weak or reduced against the parent protein; the word gives no strength. Tags and fused reporters may be left off the sequences shown.

Sequences of proteins named here, by UniProt entry; tags and fusion partners are left off. Residues count along the entry.
UniProt P01591, residues 24-159: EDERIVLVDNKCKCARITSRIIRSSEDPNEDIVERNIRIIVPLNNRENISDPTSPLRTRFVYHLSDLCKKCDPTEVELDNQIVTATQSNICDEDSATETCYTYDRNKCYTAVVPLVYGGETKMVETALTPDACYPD

Target: PA-tagged human J-chain (disulfide-linked J-chain oligomers) (human) (UniProt P01591)
Assay: high-speed AFM; 100 nM J-chain oligomers immobilised on a cobalt-scattered mica surface, 10 nM ERdj5 added to the cantilever holder; 50 mM Tris-HCl pH 7.0, 150 mM NaCl, 5 mM MgCl2, 2.5 mM GSH; room temperature; 0.1 s/frame; both purified

binding: binds
B1: DnaJ homolog subfamily C member 10 (ERdj5) WT, FLAG-tagged (enzyme, UniProt Q9DC23 33-793)
chain: DQNFYSLLGVSKTASSREIRQAFKKLALKLHPDKNPNNPNAHGDFLKINRAYEVLKDEDLRKKYDKYGEKGLEDNQGGQYESWSYYRYDFGIYDDDPEIITLERREFDAAVNSGELWFVNFYSPGCSHCHDLAPTWREFAKEVDGLLRIGAVNCGDDRMLCRMKGVNSYPSLFIFRSGMAAVKYNGDRSKESLVAFAMQHVRSTVTELSTGNFVNAIETAFAAGVGWLITFCSKGEDCLTSQTRLRLSGMLDGLVNVGWVDCDAQDSLCKSLDTTASTTAYFPPGATLNDREKSSVLFLNSLDAKEIYMEIIHNLPDFELLSANQLEDRLAHHRWLVFFHFGKNENANDPELKKLKTLLKNEHIQVGRFDCSSAPGICSDLYVFQPCLAVFKGQGTKEYEIHHGKKILYDILAFAKESVNSHVTTLGPQNFPASDKEPWLVDFFAPWCPPCRALLPELRKASTLLYGQLKVGTLDCTIHEGLCNMYNIQAYPTTVVFNQSSIHEYEGHHSAEQILEFIEDLRNPSVVSLTPSTFNELVKQRKHDEVWMVDFYSPWCHPCQVLMPEWKRMARTLTGLINVGSVDCQQYHSFCTQENVQRYPEIRFYPQKSSKAYQYHSYNGWNRDAYSLRSWGLGFLPQASIDLTPQTFNEKVLQGKTHWVVDFYAPWCGPCQNFAPEFELLARMIKGKVRAGKVDCQAYPQTCQKAGIKAYPSVKLYQYERAKKSIWEEQINSRDAKTIAALIYGKLETLQSQVKRNKDEL
